Results reported in PubChem BioAssay AID2685 (National Center for Advancing Translational Sciences (NCATS), 2010).
Some of the results follow. Further columns of the screen follow, without active or inactive calls. Most of these compounds were active or inconclusive in the main read-out, so they are no random draw. The note in brackets gives the kind of curve behind each potency; many fits are weak.

Assay: qHTS Assay for Lipid Storage Modulators in Drosophila S3 Cells;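 as to cell number change: cells counted by Cell Tracker Red CMTPX staining in the red channel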
Details: BODIPY lipid droplet fluorescence, 18-24 h; for cell number change: measured here: cell count max response, cells fed with added oleic acid
Outline: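 Drosophila S3 cells got compounds at several concentrations plus oleic acid (400 uM solution). Laser-scanning cytometry with 488 nm excitation read lipid droplets at 500-530 nm and cells at 575-640 nm. Percent activity was relative to 20 uM Triacsin C.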

[1] = measured here: cell number channel AC50, cells fed with added oleic acid
[2] = measured here: lipid fluorescence (Fed channel) AC50, cells fed with added oleic acid

| SMILES | cell number change [%] | AC50 [1] | AC50 [2] |
| --- | --- | --- | --- |
| CCCCNC(=O)CC1N=C2c3ccccc3N=C(SCC(=O)Nc3ccccc3C)N2C1=O (stereo unspecified) | 114 | 25.9 µM [rising, partial curve] | 18.4 µM [rising, partial curve] |
| C=CCc1c(C)nc(SCC(N)=O)[nH]c1=O | -42.5 | – | 2.59 µM [rising, single point] |
| CCOc1ccc(CNC(=S)Nc2ccccc2)cc1Cl | -48.1 | 25.9 µM [falling, single point] | 29.1 µM [falling, single point] |
| Cc1cc(C(=O)CN2C(=O)NC(CC(C)C)C2=O)c(C)n1-c1ccccc1F (stereo unspecified) | 18 | – | 0.00517 µM [falling, full curve, poor fit] |
| CC(=O)CSc1ccc(-c2nc3ccccc3[nH]2)cn1 | -41.6 | 23.1 µM [falling, single point] | 20.6 µM [falling, single point] |
| O=C(Nc1ccc2c(c1)OCO2)c1ccc(S(=O)(=O)N2CCCC2)cc1 | 15.8 | – | 0.206 µM [rising, full curve, poor fit] |
| CN(C(=O)CN1C(=O)S/C(=C\c2ccc(F)cc2)C1=O)C1CCS(=O)(=O)C1 (stereo unspecified) | 9.17 | – | – |
| Cc1ccc(C(=O)N/N=C2\CCCc3ccccc32)c(C)c1 | -4.75 | – | 1.03 µM [rising, partial curve, poor fit] |
| O=c1oc2ccccc2cc1-c1nc(-c2cccs2)cs1 | -4.3 | 6.51 µM [rising, single point] | – |
| Cc1ccc2c(c1)OC(=O)CC2c1ccccc1 (stereo unspecified) | 3.46 | – | 0.58 µM [falling, partial curve, poor fit] |
| CCOc1ccc(Br)cc1CSC(=N)N | -19.1 | – | 18.4 µM [falling, partial curve] |
| COc1cc(CNCCN2CCOCC2)ccc1OCc1c(Cl)cccc1Cl | -0.617 | – | 29.1 µM [falling, single point] |
| CCOC(=O)CNC(=O)/C=C/c1ccc2c(c1)OCO2 | 25.8 | – | 29.1 µM [rising, single point] |
| COc1ccc(-c2csc3ncn(Cc4ccccc4)c(=O)c23)cc1 | -30.7 | 14.6 µM [falling, single point] | – |
| O=C(NC1CCCc2c1cnn2-c1cc(F)cc(F)c1)c1ccc[n+]([O-])c1 (stereo unspecified) | 16.3 | – | 2.59 µM [rising, full curve] |
| Cc1ccc(-n2c(SCC(=O)N(C)C)nnc2-c2ccco2)cc1 | -26.4 | – | 3.26 µM [rising, partial curve, poor fit] |
| COc1ccc(CNC(=O)C2CCCN2S(=O)(=O)c2ccc(C)cc2)cc1 (stereo unspecified) | 103 | 8.2 µM [rising, partial curve] | 6.51 µM [rising, single point] |
| c1ccc(-c2cnn3nnnc3n2)cc1 | -8.15 | – | – |
| CCOC(=O)N1CCN(C(=O)c2cccn3c(=O)c4cc(Cl)ccc4nc23)CC1 | 1.72 | – | – |

Individual results from the list.
Under cell number change [%], CCOC(=O)N1CCN(C(=O)c2cccn3c(=O)c4cc(Cl)ccc4nc23)CC1 has the entry 1.72
Under AC50 [2], Cc1ccc2c(c1)OC(=O)CC2c1ccccc1 (stereo unspecified) has the entry 0.58 µM [falling, partial curve, poor fit]

Further entries.

| SMILES | cell number change [%] | AC50 [1] | AC50 [2] |
| --- | --- | --- | --- |
| NS(=O)(=O)c1cccc(NC(=O)CC(NC(=O)c2ccccc2Cl)c2ccccc2)c1 (stereo unspecified) | -22.5 | – | 4.61 µM [falling, full curve] |
| C/C(=N\NC(=S)NC(C)C)c1ccc(-n2ccnc2)cc1 | – | 0.184 µM [rising, full curve, poor fit] | 0.13 µM [rising, full curve, poor fit] |
| COc1ccc(NS(=O)(=O)c2ccc3[nH]c(=O)[nH]c3c2)cc1 | 2.59 | – | 3.66 µM [rising, single point] |
| Cc1nn(Cc2cccc(F)c2)c(C)c1NC(=O)c1c([N+](=O)[O-])c(C)nn1C | 55.5 | 0.0461 µM [rising, full curve] | 0.0651 µM [rising, full curve, poor fit] |
| N#C/C(=C\c1ccc(-c2ccc([N+](=O)[O-])cc2)o1)C(=O)Nc1nc(-c2cccs2)cs1 | 6.43 | – | – |
| Cc1ccc(-c2nn(CC(=O)N(C)C)c(=O)c3ccccc23)cc1S(=O)(=O)N(C)C | 89.6 | 29.1 µM [rising, single point] | – |
| O=C(CCC(=O)NNC(=O)COc1ccc(Br)cc1Br)NCc1ccccc1 | -29.4 | – | 18.4 µM [falling, single point] |
| CC(C)c1nc(NCCO)c(C#N)c2c1CCCC2 | -29.4 | – | 18.4 µM [falling, partial curve] |
| CCOC(=O)c1c(C)nc2c(c1-c1cc(OC)ccc1OC)C(=O)c1ccccc1-2 | – | 2.91 µM [rising, partial curve] | 2.59 µM [rising, partial curve] |
| Cc1ccc(S(=O)(=O)CCC(=O)OCC(=O)NC(C)c2ccc(F)cc2)cc1 (stereo unspecified) | -3.48 | – | 0.651 µM [falling, full curve, poor fit] |
| O=C(COC(=O)CCc1nc2ccccc2s1)Nc1ccc(S(=O)(=O)N2CCOCC2)cc1 | 2.32 | – | 6.51 µM [rising, single point] |
| O=C(OC1CCCCC1)c1cc2ccccc2oc1=O | 1.42 | – | 9.2 µM [falling, partial curve] |
| COc1ccc(/C=C(\NC(=O)c2cccs2)C(=O)Nc2ccc(C)cc2)cc1OC | -82 | 1.3 µM [falling, full curve] | 1.84 µM [falling, full curve] |
| Cc1nn(Cc2ccccc2)c2c1C(c1cccnc1)C(C#N)=C(N)O2 (stereo unspecified) | 26.4 | – | 0.82 µM [rising, full curve, poor fit] |
| O=[N+]([O-])c1nn(-c2ccc(Cl)cc2)n(O)c1=NCc1ccncc1 | 42.4 | 10.3 µM [rising, partial curve] | 14.6 µM [rising, partial curve] |
| CO/N=C/NC(=O)c1c(OC)ccnc1Oc1ccccc1 | -8.65 | – | 16.4 µM [rising, single point] |
| N#Cc1ccccc1Sc1ccccc1C(=O)OCC(=O)N1CCN(C(=O)c2ccco2)CC1 | 9.47 | – | – |
| Cc1cc2nn(-c3cccc4ccccc34)nc2cc1NC(=O)c1cccs1 | -17.6 | – | 13 µM [falling, single point] |
